The nature of this experiment: qHTS Assay for Lipid Storage Modulators in Drosophila S3 Cells.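 As to cell number change: cells counted by Cell Tracker Red CMTPX staining in the red channel.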 The note with it: BODIPY lipid droplet fluorescence, 18-24 h; for cell number change: measured here: cell count max response, cells fed with added oleic acid. Put shortly: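 Drosophila S3 cells loaded with oleic acid (400 uM, as added) and compounds at several concentrations; lipid droplets imaged by 488-nm laser-scanning cytometry, 500–530 nm intensity and object ratio to cell channel. Percent activity normalized to 20 uM Triacsin C.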
On the technique in general: Quantitative high-throughput screening tests each substance at several concentrations.

Setting [1] is: measured here: cell number channel AC50, cells fed with added oleic acid.
Setting [2] is: measured here: lipid fluorescence (Fed channel) AC50, cells fed with added oleic acid.

SMILES strings stand for the structures. Some of the results follow. Shown are side measurements of this screen, not its main read-out; they come without a call. Most of these compounds were active or inconclusive in the main read-out, so they are no random draw. Words in brackets tell the shape of the fitted curve; partial curves, single points and poor fits give uncertain potencies.

Data on 64 compounds can be found in PubChem BioAssay AID2685 (National Center for Advancing Translational Sciences (NCATS), 2010).

As to `Cc1nnc(SCC(=O)NC2CCCCCC2)n1C(C)C`, the cell number change is 11.9%. Also, the AC50 – broadly, the concentration at which the activity in the assay is half-maximal – under setting [1] was 0.58 µM [rising, full curve, poor fit]. Besides, the AC50 under setting [2] was 0.731 µM [rising, full curve, poor fit].
`Cc1occc1C(=O)N1CCCC(N2CCN(c3cccc(C(F)(F)F)c3)CC2)C1` (configuration not stated): the cell number change was determined as 1.74%. Besides, the AC50 under setting [1] was 5.17 µM [rising, single point].
Consider `CC1CCCC(C)N1CCNC(=O)CCc1nnc2n(Cc3ccccc3)c(=O)c3ccccc3n12` (configuration not stated), for which the cell number change was -13.5%. Also, the AC50 under setting [2] was 13 µM [falling, partial curve, poor fit].
In the case of `Cc1ccc(S(=O)(=O)CCC(=O)NC2CCCCC2)cc1`, the cell number change was 12.9%. For the same compound, under setting [2], the AC50 is 7.31 µM [rising, partial curve].
Regarding `CCCCNc1cnn(-c2ccccc2)c(=O)c1Cl`, the cell number change came to 5.71%. Further, the AC50 under setting [1] was 0.206 µM [rising, full curve, poor fit]. In addition, the AC50 under setting [2] is 4.11 µM [rising, single point].
For the compound `Cc1nc(Nc2ccccc2)c2oc3ccc(Cl)cc3c2n1`, the cell number change was -6.94%.
Turning to `CCOP(=O)(OCC)C(NC(C)=O)C(=O)c1ccccc1` (configuration not stated), the cell number change is -34.4%.
On the same count and under the same terms, as for `CCn1cc(C(=O)N[C@@H](CCSC)C(=O)NCCCn2ccnc2)c(=O)c2cc3c(cc21)OCO3`, the figure is -23.6%.
Regarding `Cc1ccnc2nc(C(=O)Nc3nc(-c4ccccn4)cs3)nn12`, the AC50 under setting [2] is 23.1 µM [falling, single point].
Turning to `CCn1c(CNc2ccc(C(=O)O)cc2)nc2ccccc21`, the cell number change is -22.3%. Besides, the AC50 under setting [1] was 1.64 µM [falling, full curve, poor fit]. In addition, the AC50 under setting [2] is 16.4 µM [falling, partial curve].
On to `COC(=O)CNC(=O)c1ccccc1F`, for which the cell number change is -1.66%. Moreover, the AC50 under setting [2] is 0.92 µM [falling, full curve].
With `O=C(O)c1cc(NCc2ccc(F)cc2)ccc1N1CCOCC1`, the cell number change was -36.1%. In addition, under setting [1], the AC50 was 1.84 µM [falling, full curve]. Further, the AC50 under setting [2] was 3.66 µM [falling, full curve].
With `O=S(=O)(Nc1ccc(N2CCCCC2)cc1)c1ccc(F)c(F)c1`, the cell number change is -32.3%. Besides, the AC50 under setting [1] is 29.1 µM [falling, single point]. Further, under setting [2], the AC50 is 16.4 µM [falling, single point].
On to `CC(Sc1nnc(-c2ccncc2)n1C)C(=O)Nc1nccs1` (configuration not stated), for which the cell number change is -10.5%. Moreover, under setting [2], the AC50 was 0.891 µM [rising, partial curve, poor fit].
`COc1cc(S(=O)(=O)Nc2ccccc2N2CCCCC2)ccc1NC(C)=O`: the cell number change was determined as 3.99%. In addition, under setting [2], the AC50 is 18.4 µM [falling, single point].
As to `CCN(CC)C(=O)c1csc(Nc2ccc(C)cc2)n1`, the cell number change was -32.7%. Further, the AC50 under setting [1] was 11.6 µM [falling, partial curve, poor fit].
As for `CCC(C)N(C(=O)COc1ccc(NC(C)=O)cc1)C1CCS(=O)(=O)C1` (configuration not stated), the cell number change is 13.9%. The AC50 under setting [1] was 6.51 µM [rising, single point]. The AC50 under setting [2] is 6.51 µM [rising, single point].
As to `CCN(CC)S(=O)(=O)c1ccc2c(c1)N(CC(=O)NCc1ccccn1)C(=O)CO2`, the cell number change was -19.9%. Moreover, the AC50 under setting [1] was 0.366 µM [falling, full curve, poor fit].
In the case of `CC(=O)N1CCc2cc(S(=O)(=O)CCC(=O)N3CCc4ccccc4C3)ccc21`, the cell number change is 33.5%. Moreover, the AC50 under setting [1] is 16.4 µM [rising, partial curve, poor fit].
As to `COc1cccc(/C=N/n2c(C3CCCCC3)n[nH]c2=S)c1OC`, the cell number change was 132%. For the same compound, the concentration at half-maximal activity (AC50) under setting [1] was 29.1 µM [rising, single point].
For `COc1cccc(/C=N/Nc2ccc(C(=O)O)cc2)c1O`, the cell number change is -22.9%. Besides, under setting [2], the AC50 is 6.51 µM [falling, partial curve, poor fit].
On to `COc1ccccc1CNC(=O)Cn1cc2c(n1)CCCC2`, for which the cell number change was determined as 13.9%. In addition, the AC50 under setting [2] was 5.17 µM [falling, partial curve, poor fit].
As to `O=C(C1CCCN(c2ncccn2)C1)N1CCc2ccccc21` (configuration not stated), the cell number change is -31.5%. Also, the AC50 under setting [1] is 0.146 µM [falling, full curve, poor fit]. In addition, under setting [2], the AC50 is 0.13 µM [rising, full curve, poor fit].
Take `COc1ccc(CN(C(=O)c2nsc(Cl)c2Cl)C(C(=O)NC2CCCCC2)c2ccc(OC)cc2)cc1` (configuration not stated): the cell number change is -33%. Moreover, under setting [1], the AC50 was 18.4 µM [falling, single point]. For the same compound, the AC50 under setting [2] is 20.6 µM [falling, partial curve].
For the compound `COc1cc(CN2CCN(c3ccccc3F)CC2)cc(OC)c1O`, the cell number change is -10.2%. Also, the AC50 under setting [2] was 23.1 µM [rising, single point].
On to `COc1ccc(C)cc1S(=O)(=O)N1CCCC(N2CCOCC2)C1` (configuration not stated), for which the cell number change was found to be 9.62%. Further, the AC50 under setting [2] is 29.1 µM [rising, single point].
For `CC(CCc1ccccc1)NC(=O)COC(=O)c1ccc(S(C)(=O)=O)c([N+](=O)[O-])c1` (configuration not stated), the cell number change was -32.6%. Besides, under setting [1], the AC50 is 4.61 µM [falling, full curve, poor fit]. In addition, under setting [2], the AC50 is 3.26 µM [falling, full curve].
Regarding `C=CCOc1ccccc1CN1CCC(C(=O)Nc2cccc(-c3ccn[nH]3)c2)CC1`, the cell number change worked out at 24.7%. Also, the AC50 under setting [2] was 18.4 µM [rising, partial curve].
On to `O=C(N/N=C/c1cc2c3c(c1O)CCCN3CCC2)c1ccccc1O`, for which the cell number change stood at 4.18%. Further, the half-maximal activity concentration (AC50) under setting [2] was 4.61 µM [rising, single point].
For the compound `O=C1OCCC1Sc1nc2cc(Cl)ccc2n1Cc1ccccc1` (configuration not stated), the AC50 under setting [2] was 29.1 µM [rising, single point].
`Cc1ccc(-c2noc(CN(C(=O)CCN3C(=O)c4ccccc4C3=O)C(C)C)n2)cc1`: the cell number change amounted to 175%. Moreover, the AC50 under setting [1] was 29.1 µM [rising, single point].
As for `CCn1c(COc2ccc(C)cc2)nnc1SCC(=O)C(C)(C)C`, the cell number change is -9%.
As for `CCSc1ccc([C@@H]2[C@@H]3C(=O)N(C)C(=O)[C@@H]3[C@]3(C(=O)OC)CCCCN23)cc1`, the cell number change was -10.8%. Besides, under setting [2], the AC50 was 8.2 µM [falling, partial curve, poor fit].
For the compound `CC1CCC(NC(=O)C2CCC(CNc3c(N4CCCCC4)c(=O)c3=O)CC2)CC1` (configuration not stated), the cell number change is -17%.
On to `COc1cc(CNC(C)c2ccccc2)cc(Br)c1OCc1ccc(F)cc1` (configuration not stated), for which the cell number change is -11.4%. The AC50 under setting [2] is 29.1 µM [falling, single point].
Turning to `O=C(NCCCN1CCCC1=O)c1cccc(C(F)(F)F)c1`, the cell number change was -10.9%. Besides, the AC50 under setting [2] is 13 µM [falling, partial curve].
As for `C=CCNC(=O)NC(=O)c1csc([N+](=O)[O-])c1`, the AC50 was 6.51 µM [falling, single point] under setting [1] and 6.51 µM [falling, single point] under setting [2].
Turning to `COc1cc(SC)ccc1C(=O)Nc1ccc2c(c1)CCC2`, the cell number change was -17.1%. The AC50 under setting [2] was 0.82 µM [falling, full curve].
For the compound `CN(C)c1nc(NCc2ccccc2)nc(N/N=C/c2ccc3c(c2)OCO3)n1`, the cell number change was 20.6%. The AC50 under setting [2] was 0.651 µM [rising, full curve].
In the case of `COc1ccc(OC)c(C(C)NC=O)c1` (configuration not stated), the cell number change was -167%. Moreover, the AC50 under setting [1] is 29.1 µM [falling, single point].
`CC(C)(C)c1ccc(/C=C/C(=O)Nc2ncccn2)cc1`: the cell number change is -19%. For the same compound, the AC50 under setting [2] is 6.51 µM [falling, partial curve].
Regarding `COc1ccccc1N(C)S(=O)(=O)c1ccc(C(=O)N2CCCC(C(F)(F)F)C2)cc1` (configuration not stated), the half-maximal activity concentration (AC50) under setting [1] is 2.31 µM [rising, partial curve].
Regarding `O=C(NNC(=S)NCCCN1CCOCC1)c1ccncc1`, the cell number change is -37.3%. In addition, the AC50 under setting [1] is 14.1 µM [falling, partial curve].
Turning to `CCc1cccc(OCCCCN(CC)CC)c1`, the cell number change is -26%.
For `COc1ccc(NC(=O)C2CCN(C(=O)NCc3ccccc3)CC2)cc1`, the cell number change stood at 11.9%. Also, the AC50 under setting [2] was 8.2 µM [rising, partial curve].
For the compound `CCCOC1CCCN(C(=O)c2cc(COc3c(F)cccc3F)on2)C1` (configuration not stated), the cell number change was -22.8%. For the same compound, the AC50 under setting [2] was 32.6 µM [falling, single point].
For `Cc1cc2c(SCC(=O)NC3CCCCC3)ncnc2s1`, the cell number change stood at 3.04%.
With `COc1cccc(-c2cn3nc(C)c(C)nc3n2)c1`, the cell number change was found to be 40.4%. Besides, the AC50 under setting [1] is 3.26 µM [rising, full curve, poor fit].
In the case of `COCCNC(=O)c1c(CSc2ccc(F)cc2)noc1C(=O)NCc1ccccc1`, the cell number change came to 24.2%.
As to `COc1ccc(Oc2nc(C)cc(C)c2S(C)(=O)=O)cc1`, the cell number change turned out to be 16.1%.
Regarding `Cc1ccc(S(=O)(=O)c2nc(-c3ccccc3)oc2SCC(=O)NCC2CCCO2)cc1` (configuration not stated), the cell number change is -3.97%. The AC50 under setting [2] was 18.4 µM [falling, partial curve, poor fit].
With `O=C(Nc1ccc(Br)cc1F)C1CCCN(S(=O)(=O)c2cnc[nH]2)C1` (configuration not stated), the cell number change came to 6.91%.
In the case of `O=C(Cn1c(=O)oc2ccccc21)Nc1ccc(Br)cc1`, the cell number change stood at 144%. Besides, under setting [1], the AC50 was 29.1 µM [rising, single point].
On to `Cc1cc[n+](C(C)C(=O)c2ccc(-c3ccccc3)cc2)cc1` (configuration not stated), for which the cell number change is -2.26%. Besides, the AC50 under setting [2] was 32.6 µM [falling, single point].
As to `O=C(CN1CCCCCC1)Nc1cccc(Br)c1`, the cell number change is -12.4%.
Same read-out and setting: as for `Cn1ccnc1SCC(=O)c1ccc(Br)cc1`, the figure is 16.6%; as for `CCOC(=O)C1CCN(S(=O)(=O)c2cccc(-c3cn4cc(Cl)ccc4n3)c2)CC1`, 1.53%.
As for `Cc1ccc(NC2=C(Cl)C(=O)N(C3CCCCC3)C2=O)cc1`, the cell number change stood at 2.4%. Under setting [1], the AC50 was 6.51 µM [rising, partial curve, poor fit]. In addition, under setting [2], the AC50 was 6.51 µM [rising, partial curve, poor fit].
In the case of `COc1cc(C(=O)Nc2ccc([N+](=O)[O-])cn2)cc(OC)c1OC`, the cell number change came out at 13.4%.
For `CCOc1ccc(N(CC(=O)Nc2nccs2)S(=O)(=O)c2c(C)noc2C)cc1`, the cell number change stood at 9.28%.
Still for that read-out and setting: under `Cc1cc(NC(=O)CSc2nc3c(cc2C#N)CCCCC3)no1` stands -11.2%; under `COc1ccc(NC(=O)CN(c2ccc(Cl)cc2)S(C)(=O)=O)cc1OC`, -8.07%.
Consider `CCOCCCn1c(=S)[nH]c2cc(C(=O)NC3CCCC(C)C3C)ccc2c1=O` (configuration not stated), for which the cell number change came out at 2.67%. Further, the AC50 under setting [2] is 6.51 µM [falling, single point].
Consider `Cc1ccc(NC2c3ncccc3C(=O)N2c2ccccc2C)cc1C` (configuration not stated), for which the cell number change was -12.3%.
